A short description of the data set: peptide synthesis. As to conditions: conjugation step, reverse HPLC.

The text below walks through data of US6414113B1 (Biomolecular Engineering Research Institute, priority 1998, dated 2002).

HELM strings list residues between dots; [ac] is acetyl, [am] amide, other brackets name non-standard units.

For “PEPTIDE1{[LCBiotin].H.S.Q.I.S.G.K.Y.Q.R.Y.L.K.D.A}$$$$V2.0”, the “final HPLC purity” value is listed as “more than 95%”.
